# Source: article PMC8640019, “Discovery of an exosite on the SOCS2-SH2 domain that enhances SH2 binding to phosphorylated ligands” (Nature Communications, 2021)
# System: SOCS3-Elo B/C
# Assay: ITC, SOCS3-EloB/C
# Format: binding
# Settings: single ITC run #30; cell SOCS3 B/C
smiles,measurement,value
CC(C)[C@H](NC(=O)[C@@H](NC(=O)[C@@H](NC(=O)[C@H](CO)NC(=O)[C@H](Cc1ccc(OP(=O)(O)O)cc1)NC(=O)[C@H](CCC(=O)O)NC(=O)[C@@H](NC(=O)[C@@H](NC(=O)[C@H](CO)NC(=O)[C@H](C)NC(=O)[C@@H](NC(=O)[C@@H](N)CO)[C@@H](C)O)[C@@H](C)O)C(C)C)[C@@H](C)O)C(C)C)C(=O)N[C@@H](Cc1c[nH]cn1)C(=O)N[C@@H](CO)C(=O)NCC(=O)O [gp130 pY757],ΔS,13.8 cal/mol/deg
